These are yes or no findings as the source states them, for the method shown. In cells and extracts the contact can be indirect.
What was measured:
[1] = target: HA-53BP1-H3 (deletion mutant of 53BP1-N, 101–200) (human) (UniProt Q12888); test: co-IP; HA-tagged 53BP1 constructs and GFP-tagged ACLY constructs co-transfected in HEK293T cells; RIPA buffer, Protein G Sepharose, 4 °C overnight; western blot
[2] = target: HA-53BP1-H6 (deletion mutant of 53BP1-N, 401–500) (human) (UniProt Q12888); test: as above

Amino acid sequences for entries named in this document (tags omitted). A change or cut given only in a name is not applied to a line headed by its entry.
UniProt Q12888: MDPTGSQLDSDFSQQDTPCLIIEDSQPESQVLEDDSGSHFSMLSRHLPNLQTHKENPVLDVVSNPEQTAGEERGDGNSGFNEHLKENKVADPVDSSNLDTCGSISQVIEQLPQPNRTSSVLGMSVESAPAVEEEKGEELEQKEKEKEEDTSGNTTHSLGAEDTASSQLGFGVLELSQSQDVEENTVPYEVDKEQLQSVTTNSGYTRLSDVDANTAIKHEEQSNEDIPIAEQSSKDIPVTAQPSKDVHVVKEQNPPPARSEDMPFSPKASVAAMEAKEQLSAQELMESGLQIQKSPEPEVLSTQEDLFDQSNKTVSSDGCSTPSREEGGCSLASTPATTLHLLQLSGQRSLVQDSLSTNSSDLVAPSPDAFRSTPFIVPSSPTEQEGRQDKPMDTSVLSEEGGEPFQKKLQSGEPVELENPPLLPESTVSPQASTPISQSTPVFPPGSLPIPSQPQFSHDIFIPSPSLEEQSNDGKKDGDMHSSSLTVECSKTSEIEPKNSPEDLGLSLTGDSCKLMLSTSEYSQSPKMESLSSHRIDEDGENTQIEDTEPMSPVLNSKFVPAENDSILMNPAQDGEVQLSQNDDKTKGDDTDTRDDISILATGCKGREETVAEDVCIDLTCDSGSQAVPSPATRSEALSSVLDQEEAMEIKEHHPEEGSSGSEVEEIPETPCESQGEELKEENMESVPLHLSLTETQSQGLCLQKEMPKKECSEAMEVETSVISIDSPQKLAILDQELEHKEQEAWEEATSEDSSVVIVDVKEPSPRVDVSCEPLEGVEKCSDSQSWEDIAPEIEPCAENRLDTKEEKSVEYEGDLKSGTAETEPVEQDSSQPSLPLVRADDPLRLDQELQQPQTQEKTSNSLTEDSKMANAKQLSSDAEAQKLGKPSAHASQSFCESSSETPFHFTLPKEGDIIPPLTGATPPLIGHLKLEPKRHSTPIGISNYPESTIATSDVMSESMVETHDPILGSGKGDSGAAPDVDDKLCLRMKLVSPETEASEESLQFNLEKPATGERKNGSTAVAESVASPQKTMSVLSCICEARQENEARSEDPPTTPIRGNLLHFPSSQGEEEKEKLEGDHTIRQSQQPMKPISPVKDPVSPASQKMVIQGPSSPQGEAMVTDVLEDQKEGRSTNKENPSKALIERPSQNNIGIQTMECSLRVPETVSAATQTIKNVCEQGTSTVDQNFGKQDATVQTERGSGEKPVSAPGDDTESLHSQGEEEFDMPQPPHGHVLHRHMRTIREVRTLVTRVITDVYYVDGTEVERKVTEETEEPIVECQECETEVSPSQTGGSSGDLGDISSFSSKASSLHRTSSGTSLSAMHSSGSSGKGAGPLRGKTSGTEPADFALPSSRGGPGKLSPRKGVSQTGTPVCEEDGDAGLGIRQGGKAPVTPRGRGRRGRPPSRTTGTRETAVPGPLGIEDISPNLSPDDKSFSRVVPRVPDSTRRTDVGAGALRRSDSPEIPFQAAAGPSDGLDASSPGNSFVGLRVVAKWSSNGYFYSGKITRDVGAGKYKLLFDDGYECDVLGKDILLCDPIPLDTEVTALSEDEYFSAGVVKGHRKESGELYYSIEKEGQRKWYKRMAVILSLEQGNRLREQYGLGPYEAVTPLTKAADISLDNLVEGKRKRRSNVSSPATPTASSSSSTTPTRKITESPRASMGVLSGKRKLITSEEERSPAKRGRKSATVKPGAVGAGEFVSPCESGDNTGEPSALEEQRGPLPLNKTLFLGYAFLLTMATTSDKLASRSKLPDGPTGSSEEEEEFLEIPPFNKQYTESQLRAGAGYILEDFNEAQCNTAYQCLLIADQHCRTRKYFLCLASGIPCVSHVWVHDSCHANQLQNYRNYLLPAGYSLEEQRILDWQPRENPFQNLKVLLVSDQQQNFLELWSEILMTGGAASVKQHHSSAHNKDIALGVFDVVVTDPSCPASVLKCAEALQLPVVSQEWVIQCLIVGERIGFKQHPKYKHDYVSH

GFP-ACLY (full length) (from UniProt P53396-1 1-1101) (enzyme)
binding [1]: no binding | binding [2]: no binding

Source: article PMC8860602
